Test results: patent publication EP0998924A1, “ANTITUMOR AGENTS” (MEIJI MILK PRODUCTS COMPANY LIMITED, priority 1997, dated 1999)
At least one compound was matched to its structure with a doubt left.

System: topoisomerase II
Assay: Measurement of topoisomerase II inhibitory activity (kDNA decatenation, agarose gel electrophoresis and densitometry)
Format: biochemical, rat
Description: Test Example 1 Measurement of Topoisomerase II Inhibitory Activity
(A) Extraction of crude topoisomerase II from rat infant brain nuclei (IBN)
IBN (11.98 mg/ml in 50% glycerol) (4.2 µl) was fractionated and subjected to centrifugation (3,000 × g, one minute), to thereby remove glycerol. The thus-obtained pellet was suspended in a nuclear extraction buffer (20 mM Tris-HCl (pH 7.5), 0.3 M NaCl, 140 mM β-Me, […], 20 mM PMSF) (10 µl), and the suspension was incubated in ice for 30 minutes. Subsequently, the suspension was subjected to centrifugation (10,000 × g, 10 minutes) and supernatant was fractionated, to thereby obtain crude topoisomerase II. The thus-obtained topoisomerase II was diluted on the basis of activity.
(B) Dilution of purified topoisomerase II (Top GEN, Inc)
Topoisomerase II (Top GEN, Inc) was diluted with the aforementioned nuclear extraction buffer, so as to attain a concentration of 0.75 unit/ml.
A test sample (1 µl) and a buffer (18 µl) containing a mixture of required amounts of Milli Q, 4 × topoisomerase II buffer (250 mM Tris-HCl (pH 7.9), 600 mM KCl, 50 mM MgCl2, 0.5 mM EDTA, 2.5 mM ATP, 150 mg/ml BSA), and k DNA (312 ng/ml) were added to an Eppendorf tube, and the resultant mixture was vortexed and lightly centrifuged. Subsequently, diluted crude topoisomerase II or diluted purified topoisomerase (1 µl) was added to the mixture, and the mixture was vortexed and lightly centrifuged. (Meanwhile, instead of such topoisomerase II, Milli Q (1 µl) and 50% DMSO (1 µl) were added to a reaction system prepared as a control, which system contains neither enzyme nor xanthone derivative, and 50% DMSO (1 µl) was added to a reaction system containing no xanthone derivative.)
The Eppendorf tube containing crude topoisomerase II and the Eppendorf tube containing purified topoisomerase II were allowed to stand for 30 minutes at 30°C and 37°C, respectively. […]
The amount of reacted enzyme was quantified by transforming the depth of color of the bands on the gel into numerical values by use of a computer (Gel Plotting Macros installed in NIH Image). […]

Oc1ccc([C@@H]2c3c(O)cc(O)cc3[C@H]3[C@H](c4ccc(O)cc4)c4c(O)cc(O)cc4[C@@H]23)cc1 [Pallidol, pallidol]
Residual activity (%) (test sample concentration 1 µg/ml): 30%
Residual activity (%) (test sample concentration 2 µg/ml): 3%
Residual activity (%) (test sample concentration 50 µg/ml): 0%
